Results: PubChem BioAssay AID504847 (National Center for Advancing Translational Sciences (NCATS), 2011)
The campaign covered roughly 400,000 compounds. About 3,700 (0.93%) were called active. This list was built around the results that the source calls inconclusive (neither active nor inactive); the mix of calls is not that of the screen. Calls follow the shape of the dose curve; as a rule, active = well fitted inhibition curve with a large enough effect; inconclusive = small, poorly fitted or top-dose-only effect, or another doubt; inactive = no such curve, though single readings can be large or run the other way. Potencies of inconclusive entries are doubtful fits and often do not repeat.

Sequences of proteins named here, by UniProt entry; tags and fusion partners are left off. A change or cut given only in a name is not applied to a line headed by its entry.
UniProt P11473: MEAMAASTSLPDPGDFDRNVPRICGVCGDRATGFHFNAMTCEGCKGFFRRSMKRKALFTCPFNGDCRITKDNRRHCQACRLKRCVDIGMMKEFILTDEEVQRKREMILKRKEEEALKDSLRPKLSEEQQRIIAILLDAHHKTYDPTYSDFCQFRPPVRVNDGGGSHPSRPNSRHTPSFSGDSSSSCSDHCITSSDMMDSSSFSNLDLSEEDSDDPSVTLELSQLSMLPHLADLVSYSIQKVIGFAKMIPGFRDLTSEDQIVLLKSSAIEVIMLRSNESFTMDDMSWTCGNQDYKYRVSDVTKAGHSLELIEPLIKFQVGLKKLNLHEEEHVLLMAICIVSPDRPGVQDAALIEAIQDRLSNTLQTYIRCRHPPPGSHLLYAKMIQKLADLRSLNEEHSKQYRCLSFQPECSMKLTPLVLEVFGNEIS

Biological target: Vitamin D3 receptor (Homo sapiens) (UniProt P11473)
Assay: Inhibitors of the vitamin D receptor (VDR): qHTS
Conditions: VDR-SRC2-3 peptide fluorescence polarization, 2 h; max response, negative = inhibition: stronger effect = lower value
Procedure, shortened: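 After 23 nl compound addition and a short centrifugation, plates sat for 2 hours at ambient temperature; polarization of fluorescence then indicated loss of VDR binding to peptide SRC2-3.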
% is scaled to controls: 0 for no effect and ±100 for the full control effect; potency is read from the fitted curve at half-maximal effect.

SMILES | Potency | max response, negative = inhibition
N#CC1=C2SCN(Cc3ccco3)CN2C(=O)CC1c1ccccc1F (stereo not drawn) | active: 31.6 µM | –
COc1ccc(CCNC(=O)CN2CCCc3ccccc32)cc1OC | – | inactive: -2.08%
Nc1ccc(S(=O)(=O)Nc2nccc(/C=C/c3ccc(Br)s3)n2)cc1 | inconclusive: 39.8 µM [inhibitor, single point] | –
CN(CC(O)CON=C1c2ccccc2-c2ccccc21)S(=O)(=O)c1ccc(Br)cc1 (stereo not drawn) | inconclusive: 79.4 µM [inhibitor, single point] | –
COc1cccc(-c2cncnc2Nc2ccc(F)cc2)c1 | active: 50.1 µM | –
CCOc1ccc(CNn2cnnc2)cc1 | inconclusive: 10 µM [inhibitor, partial curve, poor fit] | –
CCOC(=O)c1c2c(n(Cc3ccccc3)c1C)C(=O)C(=O)c1ccccc1-2 | active: 50.1 µM | –
Oc1ccc(Cl)cc1C1=NNC(c2cc(Br)cc3c2OCOC3)C1 (stereo not drawn) | inconclusive: 6.31 µM [inhibitor, partial curve, poor fit] | –
Cn1ncc(S(=O)(=O)Cc2ccccc2)c(Cl)c1=O | inconclusive: 89.1 µM [inhibitor, partial curve, poor fit] | –
COc1cccc(/C=C2\SC(=S)N(C(C(=O)O)c3ccccc3)C2=O)c1OC (stereo not drawn) | inconclusive: 89.1 µM [inhibitor, partial curve, poor fit] | –
c1ccc(C2[C@H]3CN(CC4CCCCC4)[C@H](c4ccccc4)C34CC2(c2ccccc2)C4)cc1 (stereo partly drawn) | inconclusive: 89.1 µM [inhibitor, partial curve, poor fit] | –
COc1ccccc1N1CCN(Cc2cc(=O)c(OCC(=O)NC(C)C)co2)CC1 | inconclusive: 39.8 µM [inhibitor, single point] | –
O=C(NCc1ccco1)c1cccc2c1C(=O)c1ccc(/C=C/c3ccccc3)cc1S2(=O)=O | inconclusive: 70.8 µM [inhibitor, partial curve, poor fit] | –
CC(C)(C)c1ccc(S(=O)(=O)Nc2ccc(O)c(Sc3nc4ccccc4s3)c2)cc1 | – | inactive: -10.5%
Cc1ccc(C(=O)Nc2ccc3oc(-c4cccnc4)nc3c2)c(Cl)c1 | – | inactive: -2.17%
CC(=O)NC1C(=O)N(CC(C)C)c2ccccc21 (stereo not drawn) | – | inactive: -8.88%
CC(C)n1c(N2CCN(S(=O)(=O)c3cccc([N+](=O)[O-])c3)CC2)nc2ccccc21 | – | inactive: -4.78%
COC(=O)c1ccc(C23CC4(C2)[C@H](CN(Cc2cccnc2)[C@@H]4c2ccccc2)C3c2ccc(C(F)(F)F)cc2)cc1 (stereo partly drawn) | – | inactive: -1.26%
CCOc1ccc(CCn2c3c(c(=O)[nH]c2=O)C(NC(=O)c2ccccc2)(C(F)(F)F)C(=O)N3)cc1OCC (stereo not drawn) | – | inactive: -4.84%
CN(C)c1nc(-c2ccc3c(c2)OCO3)nc2ccccc12 | inconclusive: 22.4 µM [inhibitor, partial curve, poor fit] | –
CCOC(=O)c1ccc(-n2c(CN(CC)CC)nc3ccc([N+](=O)[O-])cc3c2=O)cc1 | inconclusive: 89.1 µM [inhibitor, single point] | –
COc1ccc(O)c(C(=O)/C=C/c2cc3ccccc3o2)c1 | inconclusive: 20 µM [inhibitor, full curve, poor fit] | –
Nc1ccc2nc(-c3cc(Cl)c(N)c(Cl)c3)[nH]c2c1 | inconclusive: 20 µM [inhibitor, single point] | –

SMILES | Potency | max response, negative = inhibition
COc1ccc(S(=O)(=O)N(CC(=O)NCC2CCCO2)Cc2ccccc2)cc1 (stereo not drawn) | inconclusive: 70.8 µM [inhibitor, partial curve, poor fit] | –
COc1ccc(-n2nnnc2Sc2ccc(S(=O)(=O)N3CCOCC3)cn2)cc1 | inconclusive: 50.1 µM [inhibitor, partial curve] | –
COc1cccc(/C=N/NC(=O)C(C)n2nnc3ccccc32)c1 (stereo not drawn) | inconclusive: 79.4 µM [inhibitor, partial curve, poor fit] | –
Oc1ccc(Br)cc1C1C=C(c2ccc3c(c2)OCO3)NC(c2ccc(Cl)cc2)N1 (stereo not drawn) | inconclusive: 39.8 µM [inhibitor, partial curve, poor fit] | –
O=C1/C(=C\c2ccncc2)CCc2ccccc21 | active: 79.4 µM | –
Cc1oc(=O)c(NC(=O)c2cccc(Cl)c2)cc1C(=O)c1ccccc1 | active: 39.8 µM | –
CCc1ccc(C2CC(c3ccc(C)cc3)n3nc(N)nc3N2)cc1 (stereo not drawn) | inconclusive: 89.1 µM [inhibitor, partial curve] | –
Cc1c(Cl)cccc1NC(=O)C1CCCN(c2nnc(-n3c(C)ccc3C)s2)C1 (stereo not drawn) | inconclusive: 6.31 µM [inhibitor, single point] | –
O=C(NCC(c1ccc2c(c1)OCO2)N1CCN(c2ccccc2)CC1)C(=O)Nc1cccc(F)c1 (stereo not drawn) | – | inactive: -0.777%
O=c1[nH][nH]c(=S)n1C1CCCCC1 | active: 35.5 µM | –
Cc1ccc2c(c1)COc1c3ccc(C(=O)N4CCOCC4)cc3nn1-2 | inconclusive: 0.891 µM [inhibitor, partial curve, poor fit] | –
Cc1ccc2nc(-c3ccccc3N)[nH]c2c1 | inconclusive: 50.1 µM [inhibitor, partial curve] | –
Cc1ccc(SC(CC(=O)c2ccc(C(C)(C)C)cc2)C(=O)O)cc1 (stereo not drawn) | active: 20 µM | –
COCCCNc1nc2ccccc2nc1NS(=O)(=O)c1ccc(Cl)cc1 | – | inactive: 3.21%
Cc1ccc(NC(=O)CCn2nc(C)c3c(C)n(-c4ccccc4)nc3c2=O)cc1Cl | – | inactive: 19.5%
CN(C)c1cc(-c2ccc(Br)cc2)oc(=O)c1Cl | – | inactive: 8.85%
O=C(COC(=O)/C=C/c1ccccc1F)Nc1nnc(-c2ccccc2)o1 | – | inactive: 1.12%
N#C/C(=C/c1ccc(Oc2ccc([N+](=O)[O-])cn2)cc1)C(=O)N1CCOCC1 | inconclusive: 79.4 µM [inhibitor, partial curve, poor fit] | –
CCOC(=O)C1CCN(C(=O)CC(NS(=O)(=O)c2ccc(OC)cc2)C(C)C)CC1 (stereo not drawn) | inconclusive: 39.8 µM [inhibitor, single point] | –
Nc1nn(S(=O)(=O)c2cccc3nsnc23)cc1-c1ccc(Br)cc1 | – | inactive: 10.9%
CN(C(=O)c1ccc(NC(=O)Cc2ccc(NC(=O)C3CCN(C(=O)C4CCCCC4)CC3)cc2)cc1)C1CCCC1 | – | inactive: -0.554%
O=c1nc(/C=C/c2ccccc2C(F)(F)F)cc(C(F)(F)F)[nH]1 | active: 31.6 µM | –
Nc1ccc(O)c2c1C(=O)c1ccccc1C2=O | inconclusive: 89.1 µM [inhibitor, partial curve, poor fit] | –

SMILES | Potency | max response, negative = inhibition
Oc1ccc(Br)cc1C1Nc2ccccc2S1 (stereo not drawn) | inconclusive: 89.1 µM [inhibitor, single point] | –
CCN1CCN(CC(=O)Nc2ccc(OC(F)(F)F)cc2)CC1 | – | inactive: -4.96%
COc1ccc(OC)c(C2C(C(=O)c3ccc(C)o3)=C(O)C(=O)N2c2cc(C)on2)c1 (stereo not drawn) | inconclusive: 31.6 µM [inhibitor, single point] | –
O=C(NNc1nc2c(F)cccc2s1)c1cc(=O)c2ccccc2o1 | inconclusive: 89.1 µM [inhibitor, partial curve, poor fit] | –
CC(=O)O[C@H]1CC(C)(C)C(=C=C/C(C)=C/C=C/C(C)=C/C=C/C=C(C)/C=C/C=C(\C)C(=O)C[C@@]23O[C@]2(C)C[C@@H](O)CC3(C)C)[C@](C)(O)C1 | inconclusive: 89.1 µM [inhibitor, partial curve, poor fit] | –
COC(=O)C(CC(=O)c1ccc(Br)cc1)n1nc(C)cc1C (stereo not drawn) | inconclusive: 56.2 µM [inhibitor, partial curve, poor fit] | –
NC(=S)N/N=C/c1coc2ccc(Br)cc2c1=O | – | inactive: -22.4%
COc1ccc(S(=O)(=O)Nc2nc(C(F)(F)F)cs2)cc1 | – | inactive: 0.108%
COc1ccccc1CCNc1ncnc2nc[nH]c12 | – | inactive: -8.45%
Cc1cc(C)c(NC(=O)CSc2nc(=O)n(Cc3ccncc3)c3c2CCC3)c(C)c1 | – | inactive: 3.22%
Cc1cccc(N2NC(=O)/C(=C/c3ccc(-c4ccc(Cl)c(C(=O)O)c4)o3)C2=O)c1 | inconclusive: 70.8 µM [inhibitor, partial curve] | –
CCOc1ccc2nc(N(Cc3cccnc3)C(=O)c3cccs3)sc2c1 | – | inactive: 3.38%
COc1cc(/C=C2/C(=O)NN(c3cccc(Cl)c3)C2=O)cc(OC)c1O | active: 79.4 µM | –
C=CCN(c1ccccc1)S(=O)(=O)c1cccc(C(=O)N(CC)CC(=O)Nc2c(F)cccc2F)c1 | – | inactive: 7.2%
COc1ccc(NC(=O)c2cc([N+](=O)[O-])ccc2NC(=O)CNCc2ccccn2)c(OC)c1 | active: 31.6 µM | –
COc1cccc(CNC(=O)Cn2nc(C)n3c(cc4cc(C)ccc43)c2=O)c1OC | – | inactive: -2.73%
CCOC(=O)c1c(S(=O)(=O)N2CCCCCC2)c(C)n(C)c1C | inconclusive: 10 µM [inhibitor, full curve, poor fit] | –
COc1cccc(CN(C)C(=O)Cc2c[nH]c3ccccc23)c1 | – | inactive: 17.9%
N#C/C(=C/c1ccc(Sc2nc3ccccc3[nH]2)o1)c1ccccc1F | – | inactive: -5.17%
O=C(O)c1ccc(/C=C2\SC(=S)N(Nc3ccccc3)C2=O)cc1 | inconclusive: 79.4 µM [inhibitor, partial curve] | –
CC(C)c1ccc(/C=N/Nc2cc(N3CCOCC3)nc(N3CCOCC3)n2)cc1 | inconclusive: 89.1 µM [inhibitor, single point] | –
O=[N+]([O-])c1ccc(-n2nnnc2-c2ccccc2)cc1 | active: 22.4 µM | –

2 compounds picked at random from those above, as already listed:
SMILES | Potency | max response, negative = inhibition
COc1ccc(S(=O)(=O)Nc2nc(C(F)(F)F)cs2)cc1 | – | inactive: 0.108%
Cc1cc(C)c(NC(=O)CSc2nc(=O)n(Cc3ccncc3)c3c2CCC3)c(C)c1 | – | inactive: 3.22%
